Some entries share one result that the patent states for a list of compounds. Some compounds share one range, which may span the group rather than tell each member.
How the values were obtained:
Format in all cases: biochemical
[1] = target: T1, delta receptors, rat brain membranes (Rattus norvegicus, UniProt P33533); test: GTP[γ]35S binding functional assay, rat brain membranes; conditions: GTPγ35S binding
T1 construct: Rat brain membranes are thawed at 37° C; from tissue; host or cells: rat brain membranes
Method: (§1) • A. Human 293S cells expressing cloned human μ, δ, and κ receptors and neomycin resistance were grown in suspension at 37° C. and 5% CO2 in shaker flasks containing calcium-free DMEM10% FBS, 5% BCS, 0.1% Pluronic F-68, and 600 μg/ml geneticin. • B. Mouse and rat brains were weighed and rinsed in ice-cold PBS (containing 2.5 mM EDTA, pH 7.4). The brains were homogenized with a polytron for 15 sec (mouse) or 30 sec (rat) in ice-cold lysis buffer (50 mM Tris, pH 7.0, 2.5 mM EDTA, with phenylmethylsulfonyl fluoride added just prior use to […] from a 0.5M stock in DMSO:ethanol). Membrane Preparation
(§2) The agonist activity of the compounds is measured by determining the degree to which the compounds receptor complex activates the binding of GTP to G-proteins to which the receptors are coupled. In the GTP binding assay, GTP[γ]^35S is combined with test compounds and membranes from HEK-293S cells expressing the cloned human opioid receptors or from homogenised rat and mouse brain. Agonists stimulate GTP[γ]^35S binding in these membranes. The EC50 and Emax values of compounds are determined from dose-response curves. Right shifts of the dose response curve by the delta antagonist naltrindole are performed to verify that agonist activity is mediated through delta receptors.
Rat brain membranes are thawed at 37° C., passed 3 times through a 25-gauge blunt-end needle and diluted in the GTPγS binding (50 mM Hepes, 20 mM NaOH, 100 mM NaCl, 1 mM EDTA, 5 mM MgCl2, pH 7.4, Add fresh: 1 mM DTT, 0.1% BSA). 120 μM GDP final is added membranes dilutions. […] The basal and maximal stimulated binding are determined in absence and presence of 3 μM SNC-80

The chains behind the UniProt entries cited, without tags or fusion partners.
UniProt P33533, whole entry: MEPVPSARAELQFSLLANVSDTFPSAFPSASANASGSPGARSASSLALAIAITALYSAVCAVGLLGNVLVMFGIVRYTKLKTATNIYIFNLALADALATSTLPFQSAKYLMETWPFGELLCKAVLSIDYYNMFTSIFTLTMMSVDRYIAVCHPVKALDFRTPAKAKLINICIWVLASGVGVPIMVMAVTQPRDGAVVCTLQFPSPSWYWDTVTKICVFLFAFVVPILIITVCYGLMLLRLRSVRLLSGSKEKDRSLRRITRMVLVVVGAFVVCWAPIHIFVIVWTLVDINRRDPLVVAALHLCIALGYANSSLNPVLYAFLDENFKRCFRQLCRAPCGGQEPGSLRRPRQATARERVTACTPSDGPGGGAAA
UniProt P32300, whole entry: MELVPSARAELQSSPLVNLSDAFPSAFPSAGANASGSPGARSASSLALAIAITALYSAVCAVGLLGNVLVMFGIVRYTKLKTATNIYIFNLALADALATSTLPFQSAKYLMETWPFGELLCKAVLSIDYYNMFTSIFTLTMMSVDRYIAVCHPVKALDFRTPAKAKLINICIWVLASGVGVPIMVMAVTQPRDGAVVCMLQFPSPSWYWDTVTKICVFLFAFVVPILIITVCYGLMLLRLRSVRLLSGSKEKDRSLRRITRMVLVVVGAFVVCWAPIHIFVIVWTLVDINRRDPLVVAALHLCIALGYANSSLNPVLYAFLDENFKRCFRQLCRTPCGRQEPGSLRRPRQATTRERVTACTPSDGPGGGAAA

cloned human δ receptor = target: T2, cloned human δ receptor (Homo sapiens, UniProt P41143); test: GTP[γ]35S binding functional assay, HEK-293S membranes expressing cloned human δ receptor (HDELTA)
T2 construct: expressed in transfected cells; host or cells: human 293S (HEK-293S) cells, geneticin-selected
Method: as §1
Cells were pelleted and resuspended in lysis buffer (50 mM Tris, pH 7.0, 2.5 mM EDTA, with PMSF added just prior to use to 0.1 mM from a 0.1 M stock in ethanol), incubated on ice for 15 min, then homogenized with a polytron for 30 sec. The suspension was spun at 1000 g (max) for 10 min at 4° C. The supernatant was saved on ice and the pellets resuspended and spun as before. The supernatants from both spins were combined and spun at 46,000 g(max) for 30 min. The pellets were resuspended in cold Tris buffer (50 mM Tris/Cl, pH 7.0) and spun again. The final pellets were resuspended in membrane buffer (50 mM Tris, 0.32 M sucrose, pH 7.0). Aliquots (1 ml) in polypropylene tubes were frozen in dry ice/ethanol and stored at −70° C. until use. The protein concentrations were determined by a modified Lowry assay with sodium dodecyl sulfate.
as §2

[2] = target: T3, delta receptors, mouse brain membranes (Mus musculus, UniProt P32300); test: GTP[γ]35S binding functional assay, mouse brain membranes
T3 construct: from tissue; host or cells: mouse brain membranes
Method: as §1, §2

For `CC(C)N(C(=O)c1ccc(C(=C2CCN(Cc3ccccc3)CC2)c2cccc3cccnc23)cc1)C(C)C` [Example 1, 4-[1-(1-Benzyl-piperidin-4-ylidene)-1-quinolin-8-yl-methyl]-N,N-diisopropyl-benzamide], the EC50 [1] was 4.68 to 65.4 nM, the EC50 (cloned human δ receptor) was 0.53 to 12 nM and the EC50 [2] was 7.09 to 88.4 nM.

`CC(C)N(C(=O)c1ccc(C(=C2CCN(Cc3ccncc3)CC2)c2cccc3cccnc23)cc1)C(C)C` [Example 3, N,N-Diisopropyl-4-[1-(1-pyridin-4-ylmethyl-piperidin-4-ylidene)-1-quinolin-8-yl-methyl]-benzamide] showed an EC50 [1] of 4.68 to 65.4 nM, an EC50 (cloned human δ receptor) of 0.53 to 12 nM and an EC50 [2] of 7.09 to 88.4 nM.

Compound `CC(C)N(C(=O)c1ccc(C(=C2CCN(Cc3cccs3)CC2)c2cccc3cccnc23)cc1)C(C)C` [Example 4, N,N-Diisopropyl-4-[1-quinolin-8-yl-1-(1-thiophen-2-ylmethyl-piperidin-4-ylidene)-methyl]-benzamide] has an EC50 [1] of 4.68 to 65.4 nM, an EC50 (cloned human δ receptor) of 0.53 to 12 nM and an EC50 [2] of 7.09 to 88.4 nM.

`CC(C)N(C(=O)c1ccc(C(=C2CCN(Cc3ccc(Br)cc3)CC2)c2cccc3cccnc23)cc1)C(C)C` [Example 11] was tested, and the EC50 [1] was 4.68 to 65.4 nM, the EC50 (cloned human δ receptor) was 0.53 to 12 nM and the EC50 [2] was 7.09 to 88.4 nM.

`CC(C)N(C(=O)c1ccc(C(=C2CCN(Cc3ccoc3)CC2)c2cccc3cccnc23)cc1)C(C)C` [Example 6, N,N-Diisopropyl-4-[1-quinolin-8-yl-1-(1-furan-3-ylmethyl-piperidin-4-ylidene)-methyl]-benzamide] gave an EC50 [1] of 4.68 to 65.4 nM, an EC50 (cloned human δ receptor) of 0.53 to 12 nM and an EC50 [2] of 7.09 to 88.4 nM.

For `CC(C)N(C(=O)c1ccc(C(=C2CCN(Cc3ncc[nH]3)CC2)c2cccc3cccnc23)cc1)C(C)C` [Example 10, 4-{1-[1-(1H-Imidazol-2-ylmethyl)-piperidin-4-ylidene]-1-quinolin-8-yl-methyl]-N,N-diisopropylbenzamide], the EC50 [1] was 4.68 to 65.4 nM, the EC50 (cloned human δ receptor) was 0.53 to 12 nM and the EC50 [2] was 7.09 to 88.4 nM.

Work on `COc1ccc(CN2CCC(=C(c3ccc(C(=O)N(C(C)C)C(C)C)cc3)c3cccc4cccnc34)CC2)cc1` [Example 8, N,N-Diisopropyl-4-{1-[1-(4-methoxy-benzyl)-piperidin-4-ylidene]-1-quinolin-8-yl-methyl}-benzamide] yielded an EC50 [1] of 4.68 to 65.4 nM, an EC50 (cloned human δ receptor) of 0.53 to 12 nM and an EC50 [2] of 7.09 to 88.4 nM.

`CC(C)N(C(=O)c1ccc(C(=C2CCN(Cc3ccco3)CC2)c2cccc3cccnc23)cc1)C(C)C` [Example 7, N,N-Diisopropyl-4-[1-quinolin-8-yl-1-(1-furan-2-ylmethyl-piperidin-4-ylidene)-methyl]-benzamide] gave an EC50 [1] of 4.68 to 65.4 nM, an EC50 (cloned human δ receptor) of 0.53 to 12 nM and an EC50 [2] of 7.09 to 88.4 nM.

In the case of `CC(C)N(C(=O)c1ccc(C(=C2CCN(Cc3nccs3)CC2)c2cccc3cccnc23)cc1)C(C)C` [Example 9, N,N-Diisopropyl-4-[1-quinolin-8-yl-1-(1-thiazol-2-ylmethyl-piperidin-4-ylidene)-methyl]-benzamide], the EC50 [1] is reported as 4.68 to 65.4 nM, the EC50 (cloned human δ receptor) is reported as 0.53 to 12 nM and the EC50 [2] is reported as 7.09 to 88.4 nM.
